Reference: PubChem BioAssay AID1259308 (NCATS, 2017)

Assay: 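Knock-downs that increase output of a recombinant reporter protein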 (primary screen)
System: human HEK293 embryonic kidney cells stably expressing firefly luciferase (HEK-CMV-Luc2-Hygro)
Reagent: single siRNA against human genes, 0.8 pmol siRNA per well
Time to read-out: 72 h
Read-out: 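Reporter luminescence and viable-cell signal on separate replicate plates, given as percent of non-targeting control and median/MAD z-scores, plus per-cell luciferase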
Direction: total luciferase, z-score and total luciferase, % of control: higher = more reporter protein produced; luciferase per cell, z-score: higher = more reporter output per viable cell; viable cells, % of control: higher = more viable cells
Active means: 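An siRNA counts as active if its total luciferase robust z-score exceeds 3; genes with two or more such siRNAs out of three were retested with fresh siRNAs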
Meaning of the calls: active = raised luciferase; inactive = no rise
The whole screen tested about 59,000 reagents; below is a part drawn at random. About 1,510 of all reagents (2.6%) were called active. 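Calls use total luciferase alone and ignore viability, so some active siRNAs may act by altering cell number.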 Unmarked entries are inactive. Reagents against one gene are numbered here. No sequences are given here.

Gene,reagent,"total luciferase, z-score","total luciferase, % of control","luciferase per cell, z-score","viable cells, % of control"
CLP1,1,-1.62,49.7,-1.78,88.9
CLP1,2,-1.87,44.8,-2.01,84.8
CLP1,3,1.13,104,0.77,95.3
C6orf58,1,2.08,123,1.76,86.8
C6orf58,2,0.0924,83.7,0.178,89.3
C6orf58,3,-0.888,64.2,-1.13,96.7
RRP36,1,-1.12,59.7,-0.43,74.7
RRP36,2,-0.569,70.6,-0.728,95.5
RRP36,3,-0.931,63.4,-0.636,83.7
EEIG2,1,0.922,100,1.35,78.5
EEIG2,2,-1.08,60.5,-1.14,91.1
EEIG2,3,-0.0725,80.4,-0.243,95.8
ADM,1,-0.135,79.2,-0.589,103
ADM,2,-0.621,69.5,-0.928,99.2
ADM,3,0.851,98.8,1.94,66.2
CCNB1,1,-0.901,64,-0.728,86.6
CCNB1,2,-0.244,77,-0.667,103
CCNB1,3,-0.388,74.2,-0.322,90.2
F8A2,1,-0.387,74.2,-0.374,91.5
F8A2,2,0.0939,83.8,0.0448,92.5
F8A2,3,-0.173,78.4,0.12,84.9
C5,1,0.946,101,0.224,106
C5,2,-0.503,71.9,-0.702,96.6
C5,3,-0.883,64.3,-0.482,81.6

Records listed so far whose target name begins with E or e (3):
Gene,reagent,"total luciferase, z-score","total luciferase, % of control","luciferase per cell, z-score","viable cells, % of control"
EEIG2,1,0.922,100,1.35,78.5
EEIG2,2,-1.08,60.5,-1.14,91.1
EEIG2,3,-0.0725,80.4,-0.243,95.8
